From US20200270588A1, “GLUCOSYL TRANSFERASE POLYPEPTIDES AND METHODS OF USE” (Syngenta Participations AG, priority 2017, published 2020)
Changes are numbered by the printed parent chain. Numbers in names are those of the source. Some results were stated once for a whole list of compounds, not compound by compound.

B1: F21Y, T220P, M279F, A281K, L194V: mutant combination of bx9 SEQ ID NO:1 (protein)
chain: MASSRTGAGAGGRVVVFPFPYQGHFNPVMRLARALHARGLAITVFHSGALDPADYPADYRFVPVTVEADPKLLASEDIAAIVTTLNASCDAPFRARLSALLAAEGRDSVRCVFTDVSWNAVLTASSDLGVPALGMMTASAASLRDYMAYRTLIDKGYLPVKEERKEDPVPELPPYLVKDLLRVDTSDLEEFAEVLARTVTAARRASGLIFNTFPLIETDPLAEIHKALSVPVFAVAPLNKLVPTATASLHGVVQADRGCLQWLDTQQPGSVLYVSFGSFAKMDPHEFVELAWGLADSKRPFVWVVRPNLIRGFESGALPDGVEDEVRGRGIVVAWAPQEEVLAHPAVGGFLTHNGWNSTVEAISEGVPMVCCPRHGDQFGNMRYVCDVWKVGTELVGEQLERGQVKAAIDRLFGTKEGEEIKERMKEFKIAAAKGIGIGVDVDETASPRTDLTDLVDLIKSF
modifications: Zea mays
B2: F21Y, T220W, M279F, A281K, L194V: mutant combination of bx9 SEQ ID NO:1 (protein)
chain: B1 chain with P220W
modifications: Zea mays
B3: F21Y, T220P, M279F, A281K, L194C: mutant combination of bx9 SEQ ID NO:1 (protein)
chain: B1 chain with V194C
modifications: Zea mays
B4: F21Y, T220W, M279F, A281K, L194C: mutant combination of bx9 SEQ ID NO:1 (protein)
chain: B1 chain with V194C, P220W
modifications: Zea mays
B5: T220P, M279F, A281K, L194V: mutant combination of bx9 SEQ ID NO:1 (protein)
chain: B1 chain with Y21F
modifications: Zea mays
B6: T220W, M279F, A281K, L194V: mutant combination of bx9 SEQ ID NO:1 (protein)
chain: B1 chain with Y21F, P220W
modifications: Zea mays
B7: T220P, M279F, A281K, L194C: mutant combination of bx9 SEQ ID NO:1 (protein)
chain: B1 chain with Y21F, V194C
modifications: Zea mays
B8: T220W, M279F, A281K, L194C: mutant combination of bx9 SEQ ID NO:1 (protein)
chain: B1 chain with Y21F, V194C, P220W
modifications: Zea mays
B9: A432L: bx9 SEQ ID NO:1 mutant (protein)
chain: B1 chain with Y21F, V194L, P220T, F279M, K281A, A432L
modifications: Zea mays
B10: A432H: bx9 SEQ ID NO:1 mutant (protein)
chain: B1 chain with Y21F, V194L, P220T, F279M, K281A, A432H
modifications: Zea mays
B11: A432Q: bx9 SEQ ID NO:1 mutant (protein)
chain: B1 chain with Y21F, V194L, P220T, F279M, K281A, A432Q
modifications: Zea mays
B12: A432T: bx9 SEQ ID NO:1 mutant (protein)
chain: B1 chain with Y21F, V194L, P220T, F279M, K281A, A432T
modifications: Zea mays
B13: A432F: bx9 SEQ ID NO:1 mutant (protein)
chain: B1 chain with Y21F, V194L, P220T, F279M, K281A, A432F
modifications: Zea mays

Experiments:
[1] = UDP luminescence plate assay of E. coli extracts, mutants of SEQ ID No: 1, 2 mM metribuzin; assay type: biochemical, Zea mays
Experimental: (§1) Optionally plate assays are stopped with brief heating to 95 C before returning to ice and addition of UDP-Glo detection reagent followed by incubation at lab temperature. […] In addition a UDP standard curve is run alongside each set of plate tests.
Assays were carried out on extracts of E. coli BL21 DE3 expressing the various C-terminally his-tagged library variants of SEQ ID NO:1 at the amino acid positions listed in Table 11 as described in Example 2 except, in this case, with 2 mM metribuzin in place of herbicide V.
Thus the ratio of the metribuzin to DMSO signal as well as the increase in signal relative to the w/t bx9 is used to help distinguish those mutations most likely to offer the highest activity to metribuzin. A follow up assay monitored by, for example, LC MS is one method to distinguish these cases more quantitatively.

[2] = UDP luminescence plate assay of E. coli extracts, saturation mutants of SEQ ID NO: 1, herbicide V; assay type: biochemical, Zea mays; conditions: improvement factor relative to w/t bx9 = 1.0, rounded to nearest 0.5; extract activity basis; compound V
Experimental: Competent BL21 (DE3) cells are transformed as in the foregoing examples and, following seed culturing, grown and autoinduced in plates in a 0.5-1 ml volume of autoinduction medium containing 50 ug/ml kanamycin. Plates are incubated at 37° C. and shaken at 900 rpm. Growth is monitored by taking 20 ul aliquots, diluting 10 fold into flat-bottomed 96 well microtiter plates and reading OD600n at t=0, 1, 2, 2½ and 3 hours if necessary. At a (corrected) OD600 nm˜0.2, plates are transferred to 20° C. and shaken overnight at 900 rpm in a Jencons VWR plate incubator. After ˜18-20 h the final OD600 readings are recorded and the plates centrifuged at 4600 rpm (bench top centrifuge) for 10 min at 4° C. The supernatant is discarded and the pellets then washed with 0.25 ml PBS by repeat centrifugation and removal of supernatant before freezing cell pellets at −80° C. To prepare extracts, plates are allowed to thaw for 30 min and then pellets are resuspended in 0.25 ml of a suitable lysis buffer (for example—50 mM Tris HCL buffer at pH 8.0, 5% glycerol containing 50 mM NaCl and lysonase) mixed, incubated at room temperature for a sufficient time for lysis to be near complete and then centrifuged to remove cell debris and 100 ul of supernatant extract removed to a 96 well V-shaped well plate and stored on ice prior to assay.
as §1
Making use of the ELISA assay it is then possible to calculate a specific activity (e.g. in Relative Luminescence Units (RLU)/min/ug bx protein) based upon the amount of each mutant bx9 polypeptide expressed in each well. […] The specific activity of the various test mutant extracts on the same plate are then expressed as a fraction of the specific activity of the w/t bx9 and thus the ‘improvement factor’ versus the w/t expressed as a decimal where, for example, ‘0.5’ means half the specific activity of the wild type and 2.0 means twice the specific activity of the wild type. However, as will be readily apparent to the skilled man, particularly in cases where the UDP assay signal was low (with poor signal to noise versus the background) and/or the ELISA measurement of bx protein also low such a method is prone to generate spurious high specific activity numbers and uncertain numbers.

| Molecule | factor of increased signal relative to the bx9 w/t control signal (first parentheses) [1] | ratio of activity with metribuzin relative to activity with DMSO (second parentheses) [1] | Most Preferred amino acid substitutions and (IF) based on RLU/min/ul [2] |
| --- | --- | --- | --- |
| B1 | > 4.0 | > 2.2 |  |
| B2 | > 4.0 | > 2.2 |  |
| B3 | > 4.0 | > 2.2 |  |
| B4 | > 4.0 | > 2.2 |  |
| B5 | > 4.0 | > 2.2 |  |
| B6 | > 4.0 | > 2.2 |  |
| B7 | > 4.0 | > 2.2 |  |
| B8 | > 4.0 | > 2.2 |  |
| B9 |  |  | L,H,Q,T,F,Y(>5.0) |
| B10 |  |  | L,H,Q,T,F,Y(>5.0) |
| B11 |  |  | L,H,Q,T,F,Y(>5.0) |
| B12 |  |  | L,H,Q,T,F,Y(>5.0) |
| B13 |  |  | L,H,Q,T,F,Y(>5.0) |
